# Primary screen of a compound library

Protein sequences, listed by entry. Tags and fused reporters are not part of them. Residues count along the entry.
UniProt Q8IDJ8, 1-583: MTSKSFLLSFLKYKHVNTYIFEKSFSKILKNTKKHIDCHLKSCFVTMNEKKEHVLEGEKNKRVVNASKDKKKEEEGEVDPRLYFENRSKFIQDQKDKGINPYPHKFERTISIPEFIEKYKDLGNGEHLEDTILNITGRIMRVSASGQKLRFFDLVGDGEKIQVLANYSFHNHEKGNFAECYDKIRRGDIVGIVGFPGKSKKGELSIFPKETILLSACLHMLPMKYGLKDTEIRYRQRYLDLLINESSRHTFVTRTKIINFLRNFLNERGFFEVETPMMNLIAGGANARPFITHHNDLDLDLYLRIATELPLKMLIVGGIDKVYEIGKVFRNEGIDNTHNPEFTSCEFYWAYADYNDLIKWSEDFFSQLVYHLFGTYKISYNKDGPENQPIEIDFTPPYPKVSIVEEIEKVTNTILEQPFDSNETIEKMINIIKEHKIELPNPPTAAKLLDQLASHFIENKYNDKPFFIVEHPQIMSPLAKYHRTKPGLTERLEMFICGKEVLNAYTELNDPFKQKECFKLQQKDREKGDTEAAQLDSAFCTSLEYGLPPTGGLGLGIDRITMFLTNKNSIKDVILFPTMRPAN

Source: ChEMBL document CHEMBL3988442, “University of Dundee, Small-Polar-MMV Screening Library” (2021).

Toxoplasma: 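Assay of Toxoplasma gondii numbers, read through their beta-galactosidase reporter with a colour substrate. Tested at 10 µM. Higher reads as fewer parasites (inferred from which compounds were picked for retests). About 67,000 compounds were tested under these conditions; 0.38% (about 260) showed 50% or more at least once.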
T. brucei: 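Whole-parasite assay of Trypanosoma brucei over 72 hours; the read-out is not stated. Tested at 30 µM. The record gives no direction; compounds that gave an IC50 in retests scored well above the rest, so higher reads as stronger inhibition. Values scatter widely below zero; nearly all retest evidence comes from the higher of the two concentrations used. Size under these conditions: about 64,000 compounds, about 940 of them at 50% or above in at least one test.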
Leishmania in macrophages: 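Cell assay of Leishmania donovani living inside macrophages; the read-out is not stated. Concentration: 30 µM. Higher reads as stronger inhibition (inferred: compounds with an IC50 in retests scored well above the rest). About 69,000 compounds were tested under these conditions; 1.5% (about 1,000) showed 50% or more at least once.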
PfKRS1: 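Enzyme assay of the cytosolic lysyl-tRNA synthetase in 384-well plates, read by luminescence. Target: Lysine-tRNA ligase, Plasmodium falciparum 3D7 (UniProt Q8IDJ8). Concentration: 30 µM. Direction is inferred from only a few compounds that gave an IC50; most scored high, so higher reads as stronger inhibition. Size under these conditions: about 69,000 compounds, about 49 of them at 50% or above in at least one test.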

Results are given as percent effect.
The record does not define 0% and 100%; most values in the screen are far below 50% and negative numbers occur (in some assays of this library far below -100).
This is an unselected part of the compounds tested.
Two or more numbers in one place are separate tests of the same structure; such repeats can differ widely.

For O=C(c1ccccc1)N1C[C@@H]2CC[C@H](C1)N(S(=O)(=O)c1cccnc1)C2 the result was PfKRS1: 2.187%. CC(=O)N1CCc2ccc(NC(=O)c3cn(C)nn3)cc2C1 gave Toxoplasma: -2.695%; T. brucei: -13.69%; Leishmania in macrophages: -9.732%; PfKRS1: -0.6888%. Result for COc1cccc(CC(=O)N2CCC(O)(C(F)(F)F)C2)c1 (centres undefined) was Toxoplasma: -1.299%; T. brucei: -2.603%; Leishmania in macrophages: 10.14%; PfKRS1: 3.043%. O=C(O)C(F)(F)F.[H][C@]12CCC[C@@H](CNc3nccn3C)[C@@]1([H])CN(Cc1cccnc1)C2 read Toxoplasma: 5.664%; T. brucei: -5.749%; Leishmania in macrophages: -4.246%. CC(C)(C)NC(=O)Cn1cc(C(N)=O)c(-c2ccccc2)n1 read Toxoplasma: 3.96%; T. brucei: -15.93%; Leishmania in macrophages: 27.88%; PfKRS1: 1.207%. With O=S(=O)(NCc1ccccc1)NCc1nc(-c2ccncc2)n[nH]1 the screen gave Toxoplasma: 26.65%; T. brucei: -81.47%; Leishmania in macrophages: 14.08%; PfKRS1: 1.353%. Result for CCC1CCCCN1S(=O)(=O)c1c(N)noc1C (centres undefined) was Toxoplasma: 6.065%; T. brucei: -6.874%; Leishmania in macrophages: 15.23%; PfKRS1: -3.341%.

Result for [H][C@]12CC[C@]([H])(CN(C(=O)N(C)C)C1)N(C(=O)c1ccccc1SC)C2 was Toxoplasma: 2.293%; T. brucei: -19.87%; Leishmania in macrophages: -49.54%. O=C(CN1CC(c2ccccc2)CC1=O)N1CCC(c2ncc[nH]2)CC1 (centres undefined) read Toxoplasma: 17.41%; T. brucei: -37.42%; Leishmania in macrophages: 32.91%; PfKRS1: 7.778%. With CCCc1ccc(OC23CCCN(CC2)C3)c(OC)c1 (centres undefined) the screen gave Toxoplasma: 5.286%; T. brucei: -5.687%; Leishmania in macrophages: 28.7%; PfKRS1: 1.419%. CN(Cc1ccc(F)c2cccnc12)C1CCS(=O)(=O)C1 (centres undefined) read Toxoplasma: 0.7585%; T. brucei: -30.39%; Leishmania in macrophages: 34.99%; PfKRS1: 9.604%. With Cc1nn(C)c(Cl)c1C1CCCN1C(=O)c1ccncc1 (centres undefined) the screen gave Toxoplasma: -8.337%; T. brucei: -6.861%; Leishmania in macrophages: -2.411%; PfKRS1: -1.981%. Cn1cnc2c1C(COCc1ccccc1)N(Cc1cccnc1)CC2.O=C(O)C(F)(F)F.O=C(O)C(F)(F)F.O=C(O)C(F)(F)F (centres undefined) gave Toxoplasma: 3.571%; T. brucei: -8.09%; Leishmania in macrophages: 20.14%. For CCc1cnc(C)nc1NCCN1CCOCC1 the result was Toxoplasma: 2.954%; T. brucei: -27.79%; Leishmania in macrophages: 2.886%; PfKRS1: 6.715%.

For Cc1nc(-c2ccco2)ccc1C(=O)NCC(=O)N1CCCCC1 the result was Toxoplasma: 9.636%; T. brucei: -21.33%; Leishmania in macrophages: 4.751%; PfKRS1: -0.5228%. C[C@@H]1CN(S(=O)(=O)N2CCCC2)C[C@@]1(O)C1CC1 read Toxoplasma: -8.884%; T. brucei: -20.81%; Leishmania in macrophages: -1.089%; PfKRS1: -2.749%. Cc1noc(C(C)SCc2ccccn2)n1 (centres undefined) gave Toxoplasma: -6.809%; T. brucei: -2.723%; Leishmania in macrophages: 3.691%; PfKRS1: 3.454%. Cn1ncc(N2CCC(CNC(=O)[C@@H](N)C3CCCCC3)CC2)cc1=O read Toxoplasma: -1.104%; T. brucei: -36.62%; Leishmania in macrophages: 13.83%; PfKRS1: 3.149%. CN(C)c1ncc(CNC(=O)Nc2ccccc2F)n1C read Toxoplasma: -6.715%; T. brucei: -7.041%; Leishmania in macrophages: -14.57%; PfKRS1: 4.844%. For Cc1cc2[nH]c(CN3CCCCC3c3cccc(F)c3)cc(=O)n2n1 (centres undefined) the result was Toxoplasma: -12.73%; T. brucei: -0.5788%; Leishmania in macrophages: -11.26%; PfKRS1: 1.002%. Cc1cc(C(=O)NCC(=O)N2CCOCC2)nn1C(C)(C)C read Toxoplasma: -9.612%; T. brucei: -46.13%; Leishmania in macrophages: -18.92%; PfKRS1: 0.6767%.

Result for Cc1nc(CN2CCCN(CC(=O)Nc3cccnc3)CC2)no1 was Toxoplasma: 5.848%; T. brucei: -17.32%; Leishmania in macrophages: -2.078%; PfKRS1: -3.026%. With CS(=O)(=O)NCc1cncc2c1CCN(CC1CCOC1)C2 (centres undefined) the screen gave PfKRS1: 6.341%. For Cc1ccc(C2CN(CCCS(=O)(=O)C(C)C)CCO2)c(C)c1 (centres undefined) the result was Toxoplasma: 6.275%; Leishmania in macrophages: -0.1972%; PfKRS1: -0.4737%. Result for CC(=O)N[C@@H](C)C(=O)NCc1cccnc1Oc1ccccc1F was Toxoplasma: 5.927%; T. brucei: -23.86%; Leishmania in macrophages: 20.97%; PfKRS1: 1.222%. COc1cc(C(=O)N(C)C)ccc1NC(=O)c1ccsc1 read Toxoplasma: 3.18%; T. brucei: -47.37%; Leishmania in macrophages: 4.557%; PfKRS1: 0.7385%. With Cc1cc(CN2CCCn3nc(CCC(=O)O)cc3C2)ccc1F the screen gave Toxoplasma: -3.812%; T. brucei: -40%; Leishmania in macrophages: 17.15%; PfKRS1: 1.336%. CCN(CC(F)(F)F)C(=O)C1CCCN(Cc2nc(C)c(C)o2)C1 (centres undefined) gave Toxoplasma: 3.678%; T. brucei: -29.66%; Leishmania in macrophages: 11.14%; PfKRS1: 1.895%.

Result for Nc1nonc1C(=O)N1Cc2ccccc2OC2(CCOCC2)C1 was Toxoplasma: -25.01%; T. brucei: -29.96%; Leishmania in macrophages: 15.46% & 17.56%; PfKRS1: 1.974%. Cc1ccc([C@]2(O)CC[C@H]3CN(Cc4ccncc4)C[C@H]32)nc1 gave PfKRS1: -4.523%. O=C(CCc1ccco1)N1CCc2[nH]nc(COc3ccccc3)c2C1 read Toxoplasma: -1.334%; T. brucei: -57.79%; Leishmania in macrophages: 17.86%; PfKRS1: -5.536%.